No constants are given. Whether binding was seen depends on the method and setting. Binding calls can cover weak binding; strength is not graded here. Where a sequence is shown, tags or fusion partners need not be part of it.
Experiments:
TGF-β2 [1] = target: TGF-β2 (UniProt P61812); test: SPR, fusion injected over immobilised TGF-β2
TGF-β2 [2] = target: TGF-β2 (UniProt P61812); test: SPR

Amino acid sequences for entries named in this document (tags omitted). A change or cut given only in a name is not applied to a line headed by its entry.
UniProt P61812: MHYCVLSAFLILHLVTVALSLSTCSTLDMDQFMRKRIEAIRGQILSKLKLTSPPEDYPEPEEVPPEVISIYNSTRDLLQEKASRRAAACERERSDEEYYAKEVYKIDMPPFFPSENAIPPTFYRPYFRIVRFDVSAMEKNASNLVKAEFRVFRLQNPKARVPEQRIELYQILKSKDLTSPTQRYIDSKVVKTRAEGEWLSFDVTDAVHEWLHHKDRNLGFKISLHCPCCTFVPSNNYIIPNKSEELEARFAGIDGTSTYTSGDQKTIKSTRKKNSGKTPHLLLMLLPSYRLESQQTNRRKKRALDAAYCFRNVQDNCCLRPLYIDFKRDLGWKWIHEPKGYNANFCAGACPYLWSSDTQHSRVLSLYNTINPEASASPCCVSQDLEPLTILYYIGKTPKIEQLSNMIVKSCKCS

B1: RER (TβRII-TβRIIIE-TβRII) heterotrimeric fusion (designed binder)
chain: AAANGAVKFPQLCKFCDVRFSTCDNQKSCMSNCSITSICEKPQEVCVAVWRKNDENITLETVCHDPKLPYHDFILEDAASPKCIMKEKKKPGETFFMCSCSSDECNDNIIFSEEYNTSNPDGLGPVESSPGHGLDTAAAGPEPSTRCELSPINASHPVQALMESFTVLSGCASHGTTGLPREVHVLNLRSTDQGPGQRQREVTLHLNPIASVHTHHKPIVFLLNSPQPLVWRLKTERLAAGVPRLFLVSEGSVVQFPSGNFSLTAETEERNFPQENEHLLRWAQKEYGAVTSFTELKIARNIYIKVGEDQVFPPTCNIGKNFLSLNYLAEYLQPKAAEGCVLPSQPHEKEVHIIELITPSSNPYSAFQVDIIVDIRPAQEDPEVVKNLVLILKSKKSVNWVIKSFDVKGNLKVIAPNSIGFGKESERSMTMTKLVRDDIPSTQENLMKWALDAGYRPVTSYTMAPVANRFHLRLENNEEMRDEEVHTIPPELRILLDPDKLPQLCKFCDVRFSTCDNQKSCMSNCSITSICEKPQEVCVAVWRKNDENITLETVCHDPKLPYHDFILEDAASPKCIMKEKKKPGETFFMCSCSSDECNDNIIFSEEYNTSNPD
binding (TGF-β2 [1]): binds
binding (TGF-β2 [2]): binds

From patent USRE49280
